The exact form of at least one protein or probe is not confirmed. For some of these results: No signal at the amounts used counts as a negative. For some of these results: Weaker means in comparison with the reference protein, sequence or condition of that experiment.

Data set [1] has as its system CiWRKY27 (Citrus ichangensis (Ichang papeda)). Put plainly: EMSA. The conditions noted are these: Chemiluminescent EMSA kit (Beyotime), manufacturer's manual; pH and temperature not stated; recombinant protein; protein details: His (pHMGWA vector); label: biotin.
Data set [2] shares this test system. Description: competition with a labelled probe. The conditions noted are these: dose-dependent competition against labeled P2 probe; Chemiluminescent EMSA kit (Beyotime), manufacturer's manual; pH and temperature not stated; recombinant protein; protein details: His (pHMGWA vector).

“TATTTAATTCGTTTAAAGGGTCAAAAAAATTAAAGAAAGT (double strand) [SPDS1-W1-probe (P1)]”: the binding result in data set [1] is listed as “no binding”.

In the case of “ATAATTTCTTGGGGCAATCATTACTCTCTTATAATTACAA (double strand) [mutant-SPDS1-W2-probe]”, the binding result in data set [1] is “binds more weakly”.

In the case of “ATAATTTCTTGGGTCAATCATTACTCTCTTATAATTACAA (double strand) [SPDS1-W2-probe (P2)]”, the binding result in data set [1] is “binds”.

As to “ATAATTTCTTGGGTCAATCATTACTCTCTTATAATTACAA (double strand) [SPDS1-W2 unlabeled competitor]”, in data set [2], the binding result is reported as “binds”.
